# PubChem BioAssay AID504444 (National Center for Advancing Translational Sciences (NCATS), 2011)
# Out of some 360,000 compounds screened, about 7,500 (2.1%) were called active. Inconclusive results, whose numbers are uncertain, are shown with a selection of clear calls. Calls come from the whole dose curve; as a rule, active = well fitted inhibition curve with a large enough effect; inconclusive = small, poorly fitted or top-dose-only effect, or effect the other way; inactive = flat fitted curve, though single readings scatter. A potency beside an inconclusive call is a rough fit, not a confirmed value.
# Test: Nrf2 qHTS screen for inhibitors; note: nearly all actives have a fitted effect of over 60% in size
# Details: A549 ARE-Fluc reporter, luciferase luminescence, 18-24 h; series mostly up to 46 µM
# Summary of the method: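 Nrf2 function is reported as luminescence of an ARE-controlled luciferase in A549 cells. Compounds were tested at several concentrations, and a CellTiter-Fluor read on the same wells flagged cytotoxicity.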
# Potency is the fitted concentration of half-maximal effect.
row,Compound,Potency
1,CCOC(=O)c1c(-c2ccc(OC)cc2)csc1NC(=O)CSc1ccccc1,"inconclusive: 25.9 µM [falling, single point]"
2,CCC1=C(C)CN(C(=O)NCCc2ccc(S(=O)(=O)NC(=O)NC3CCC(C)CC3)cc2)C1=O (stereo not given),"inconclusive: 18.4 µM [falling, partial curve, poor fit]"
3,O=C(Cn1c(=O)c2c(ncn2Cc2ccccc2)n(Cc2ccccc2)c1=O)N1CCc2ccccc21,"inconclusive: 2.31 µM [falling, partial curve, poor fit]"
4,CC(=O)c1ccc(OCc2cc(C(=O)NCCn3nc(C)cc3C)no2)cc1,"inconclusive: 9.2 µM [activator, partial curve]"
5,CCOC(=O)c1c(C)nc2sc3c(c2c1-c1ccc(OC)cc1)NC(c1ccccc1)NC3=O (stereo not given),inactive
6,O=c1c2ccccc2nc(/C=C/c2ccc(Br)cc2)n1CCCO,inactive
7,CCCC(=O)N1CCN(c2nc(CC(C)C)c3c(c2C#N)CCC3)CC1,"inconclusive: 29.1 µM [falling, single point]"
8,COc1cccc(NC(=O)C2CCCN(c3ncnc4onc(C)c34)C2)c1 (stereo not given),"inconclusive: 4.11 µM [falling, full curve, poor fit]"
9,Cc1ccsc1C1CC(=O)Nc2ccccc2S1 (stereo not given),"inconclusive: 0.146 µM [falling, full curve]"
10,c1cn(-c2ccc(-c3ccnc4ncnn34)cc2)cn1,"inconclusive: 18.4 µM [activator, partial curve, poor fit]"
11,Cc1ccc(NC(=O)COC(=O)c2csc3c2CCC(C)C3)cc1S(=O)(=O)N1CCCCC1 (stereo not given),"inconclusive: 20.6 µM [falling, partial curve, poor fit]"
12,CCOC(=O)c1[nH]c(C)c(CN(C(C)=O)c2ccc(OCC)cc2)c1C,"inconclusive: 20.6 µM [activator, single point]"
13,COc1cccc(C(=O)Nc2ccc3nc(SCCOc4ccccc4)sc3c2)c1,"inconclusive: 29.1 µM [falling, single point]"
14,CCc1ccc2oc(-c3cc(NC(=O)c4cccs4)ccc3Cl)nc2c1,"inconclusive: 29.1 µM [falling, single point]"
15,N#Cc1c(N)n(C2CCCCC2)c2nc3ccccc3nc12,"inconclusive: 29.1 µM [falling, single point]"
16,CC(C)Cn1c(N)c(C(=O)NCCN2CCOCC2)c2nc3ccccc3nc21,"inconclusive: 29.1 µM [falling, single point]"
17,CN(C)CCNc1ccc(CO)c2oc3ccc(O)cc3c(=O)c12,"inconclusive: 13 µM [falling, partial curve]"
18,CS(=O)(=O)N(CC(=O)NC1CC2CCC1C2)c1ccc(Oc2ccccc2)cc1 (stereo not given),"inconclusive: 25.9 µM [falling, partial curve, poor fit]"
19,CCC(C)NC(=O)Cn1ccc2cc(S(=O)(=O)N3CCCCCC3)ccc21 (stereo not given),"inconclusive: 29.1 µM [falling, single point]"
20,CNC(=O)/C(C#N)=C\c1cc(C)n(-c2ccc(N3CCOCC3)cc2)c1C,"inconclusive: 29.1 µM [activator, single point]"

row,Compound,Potency
1,COc1cc(C(=O)Oc2cccc(Nc3ncnc4ccccc34)c2)cc(OC)c1OC,active: 14.6 µM
2,C#CCOCCOCCOCCNc1nc(N2CCN(C(=O)C(Cc3cc4ccccc4[nH]3)n3cc(C(N)Cc4ccc(O)cc4)nn3)CC2)nc(N2CCN(C(=O)C(Cc3cc4ccccc4[nH]3)n3cc(C(N)Cc4ccc(O)cc4)nn3)CC2)n1 (stereo not given),inactive
3,CN(c1ccccc1C(=O)NC1CCCCC1)S(=O)(=O)c1ccccc1,inactive
4,Cc1c(NC(=O)c2ccc(-c3ccccc3)cc2)cccc1C(=O)O,"inconclusive: 1.84 µM [activator, full curve]"
5,O=C(O)c1ccc(NN=CC2=C(N3CCOCC3)/C(=C/c3ccccc3)CC2)cc1,"inconclusive: 6.51 µM [activator, single point]"
6,CCc1nc(SCC(=O)Nc2ccccc2C(=O)OC)n[nH]1,"inconclusive: 0.0731 µM [falling, full curve, poor fit]"
7,CC[N+](C)(CC)CCC(c1ccccc1)C1CCCCC1 (stereo not given),inactive
8,CS(=O)(=O)N1CCC(Oc2cccc(C(=O)NCCCC3CCCC3)c2)CC1,active: 25.9 µM
9,Cc1ccc(CN(C(=O)COc2ccc(F)cc2)C2CCS(=O)(=O)C2)o1 (stereo not given),inactive
10,CCCCC(=O)Nc1ccc(C(=O)N2CCN(c3ccccc3OC)CC2)cc1,"inconclusive: 4.61 µM [falling, single point]"
11,CCCn1c(SCc2nc(-c3cccs3)no2)nnc1-c1ccncc1,"inconclusive: 29.1 µM [falling, single point]"
12,CC1C(=O)N2CCCc3cc(NC(=O)C(=O)NCc4ccc5c(c4)OCO5)cc1c32 (stereo not given),"inconclusive: 32.6 µM [falling, single point]"
13,CN(N=Nc1cccc([N+](=O)[O-])c1)c1ccccc1,"inconclusive: 29.1 µM [activator, single point]"
14,CSc1nnc(-c2ccccc2N=Cc2c(C)[nH]n(-c3ccccc3)c2=O)c(=O)[nH]1,"inconclusive: 0.103 µM [activator, full curve, poor fit]"
15,Cc1ccccc1CCNC(=O)CCn1nc(C)c2c(C)n(-c3ccccc3)nc2c1=O,"inconclusive: 32.6 µM [falling, single point]"
16,CNC(=O)c1ccc(Nc2nc(-c3ccccc3)nc3ccccc23)cc1,active: 23.1 µM
17,CCCC1Oc2ccccc2C(=O)N(CC(=O)c2ccc3c(c2)OCCO3)C1=O (stereo not given),"inconclusive: 9.2 µM [activator, partial curve]"
18,Cc1ccc(-n2ncc(C(=O)NCCN3CCC(Cc4ccccc4)CC3)c2C2CCN(C(=O)OC(C)(C)C)CC2)cc1,"inconclusive: 25.9 µM [falling, single point]"
19,Cc1sc2ncn(CC(=O)NCCCC(=O)N3CCC(C(N)=O)CC3)c(=O)c2c1C,"inconclusive: 29.1 µM [activator, partial curve, poor fit]"
20,Cc1cc(NS(=O)(=O)c2ccc(NC(=O)COc3cc(C)c(Br)cc3C(C)C)cc2)no1,inactive

# Look-ups from the list:
# `CCc1nc(SCC(=O)Nc2ccccc2C(=O)OC)n[nH]1` | Potency: inconclusive: 0.0731 µM [falling, full curve, poor fit]
# `CCCn1c(SCc2nc(-c3cccs3)no2)nnc1-c1ccncc1` | Potency: inconclusive: 29.1 µM [falling, single point]
